Laboratory results published in US20070271623A1 (UNIVERSITY OF COPENHAGEN, published 2007).

Key:
[1] = target: T1, MKS1 as bait (BD fusion), MKS1-BD (Arabidopsis thaliana); test: directed yeast two-hybrid assay
T1 construct: also called MKS1 bait; MAP Kinase Substrate 1

MPK4 as bait (BD fusion) = target: T2, MPK4 as bait (BD fusion) (Arabidopsis thaliana, UniProt P04386 1-147; Q39024 1-376); test: directed yeast two-hybrid assay
T2 construct: also called MPK4 bait

B1: WRKY26 as prey (AD fusion) (other, UniProt Q9C5T3 1-309, looked up, not shown: large carriers)
chain: MGSFDRQRAVPKFKTATPSPLPLSPSPYFTMPPGLTPADFLDSPLLFTSSNILPSPTTGTFPAQSLNYNNNGLLIDKNEIKYEDTTPPLFLPSMVTQPLPQLDLFKSEIMSSNKTSDDGYNWRKYGQKQVKGSENPRSYFKCTYPNCLTKKKVETSLVKGQMIEIVYKGSHNHPKPQSTKRSSSTAIAAHQNSSNGDGKDIGEDETEAKRWKREENVKEPRVVVQTTSDIDILDDGYRWRKYGQKVVKGNPNPRSYYKCTFTGCFVRKHVERAFQDPKSVITTYEGKHKHQIPTPRRGPVLRLLGKTET
notes: mature
B1: no binding [1].

B2: WRKY33 as prey (AD fusion) (other, Arabidopsis thaliana, UniProt Q8S8P5 332-519, looked up, not shown: large carriers)
chain: NETNGGNGGGSKTVREPRIVVQTTSDIDILDDGYRWRKYGQKVVKGNPNPRSYYKCTTIGCPVRKHVERASHDMRAVITTYEGKHNHDVPAARGSGYATNRAPQDSSSVPIRPAAIAGHSNYTTSSQAPYTLQMLHNNNTNTGPFGYAMNNNNNNSNLQTQQNFVGGGFSRAKEEPNEETSFFDSFMP
notes: The library hits were five different truncated WRKY33 proteins; also called W33; transcription factor WRKY33
B2: no binding (MPK4 as bait (BD fusion)).
